The test concerns the target RLuc-tethered human mu receptor fusion protein (human) (UniProt P35372). As to the kind of experiment: FRET or BRET; living SH-SY5Y cells stably co-expressing mu-RLuc and β-arrestin 2-RGFP, PBS with 0.5 mM MgCl2 and 0.9 mM CaCl2, 2 μM Prolume Purple Coelenterazine; agonist peptide added 5 min before reading; BRET ratio after vehicle subtraction.

Chains of the proteins cited; added tags and fusions are not shown.
UniProt P35372: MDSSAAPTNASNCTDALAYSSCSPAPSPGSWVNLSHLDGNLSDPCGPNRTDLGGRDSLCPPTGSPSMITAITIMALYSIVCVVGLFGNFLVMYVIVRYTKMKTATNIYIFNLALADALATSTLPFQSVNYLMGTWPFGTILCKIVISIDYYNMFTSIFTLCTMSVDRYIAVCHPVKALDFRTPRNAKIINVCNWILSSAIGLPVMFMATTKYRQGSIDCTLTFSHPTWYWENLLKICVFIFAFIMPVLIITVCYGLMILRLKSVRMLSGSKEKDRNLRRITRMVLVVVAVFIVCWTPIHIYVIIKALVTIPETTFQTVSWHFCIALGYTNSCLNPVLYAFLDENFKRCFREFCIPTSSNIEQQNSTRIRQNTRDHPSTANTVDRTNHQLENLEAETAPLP
UniProt P32121: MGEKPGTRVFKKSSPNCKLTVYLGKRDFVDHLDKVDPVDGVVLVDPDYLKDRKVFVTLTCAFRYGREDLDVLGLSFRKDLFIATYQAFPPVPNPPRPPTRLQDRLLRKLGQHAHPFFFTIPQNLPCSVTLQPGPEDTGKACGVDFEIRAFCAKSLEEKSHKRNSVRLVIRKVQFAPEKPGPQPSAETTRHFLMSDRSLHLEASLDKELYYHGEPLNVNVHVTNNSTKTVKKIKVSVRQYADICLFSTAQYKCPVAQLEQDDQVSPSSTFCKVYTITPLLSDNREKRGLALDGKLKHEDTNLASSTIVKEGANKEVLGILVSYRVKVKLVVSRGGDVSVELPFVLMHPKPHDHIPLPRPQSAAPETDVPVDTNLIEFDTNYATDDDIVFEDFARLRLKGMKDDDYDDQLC

Results are given in words; binding and its absence hold for the method and conditions named. Binding seen in cells or lysates may run through a third protein. Some entries that bind do so weakly or less than the wild type.

As for “human β-arrestin 2 N-terminal-tagged with RGFP (from UniProt P32121 1-409)”, the binding entry is “binds”.
